Assay results: patent US11291672B2, “Betamethasone oral spray formulation and method of use to treat ataxia” (GRACE THERAPEUTICS LLC, priority 2016, dated 2022)
Like-named read-outs stand apart in the source and are kept apart here. At least one compound was matched to its structure with a doubt left.

Columns and labels:
[1] = Betamethasone base conversion at 25° C. and linear regression prediction; format: physicochemical
[2] = tested on: neurological symptoms in ataxia telangiectasia; conditions: cited from earlier work
[3] = tested on: neurological signs in ataxia-telangiectasia patients; conditions: 0.1 mg/kg/day for 10 days, cited from earlier work
[4] = tested on: neurological symptoms in ataxia-telangiectasia; conditions: 20-day cycle, cited from earlier work
[5] = tested on: reactive oxygen species (ROS) production; conditions: oral 0.1 mg/kg/day for 10 days; the only patient studied at different time-points; cited from earlier work
[6] = tested on: motor cortex activation in AT patients; conditions: oral 0.03 mg/kg/day, 10-day cycle; 2 patients who completed; cited from earlier work
[7] = tested on: ataxia symptoms in children with AT; conditions: cited from earlier work; for reduction of ICARS total score, median: 0.1 mg/kg/day for 30 days
[8] = comparison among glucocorticoids; cited from earlier work
[9] = tested on: ATM; conditions: leads to skipping of mutations upstream of nucleotide residue 8450 of ATM coding sequence; cited from earlier work

SMILES | amount of converted betamethasone base above which it precipitates out in the oral spray formulation ([1]; equivalent of 0.15 mg/0.14 ml) | amount of converted betamethasone base above which it precipitates out in the oral spray formulation ([1]; from accelerated stability study data, per spray volume) | neurological improvement after 4 weeks of treatment ([2]; child with AT, 0.1 mg/kg/day) | time to improvements in the neurological symptoms ([2]; child with AT, betamethasone 0.1 mg/kg/day) | patients with clear amelioration of the neurological performances (SARA) ([3]; six patients (5-30 y)) | evaluated neurological items improved during therapy ([3]; 28 of 46 items) | effect on SARA scores ([4]; oral 0.01 mg/kg/day) | SARA scores ([4]; oral 0.03 mg/kg/day, six patients (8-19 y)) | ROS levels [5] | number of activated voxels within the motor cortex (fMRI), on-therapy vs baseline [6] | reduction of ICARS total score, median ([7]; intent-to-treat (ITT) population) | reduction of ICARS total score, median ([7]; per-protocol (PP) population) | median percent decrease of ataxia symptoms ([7]; ITT population) | median percent decrease of ataxia symptoms ([7]; PP population) | equivalent mg dosage [8] | effect on ATM transcript splicing [9] | effect on neurological symptoms when replacing betamethasone after 4 weeks ([2]; 2 mg/kg/day)
C[C@H]1C[C@H]2[C@@H]3CCC4=CC(=O)C=C[C@]4(C)[C@@]3(F)[C@@H](O)C[C@]2(C)[C@@]1(O)C(=O)CO [betamethasone] | > 1.07 mg/mL | more than 0.15 mg/0.14 ml | dramatic | 2-3 days | five of the six | 60% | still appreciable | significantly improved in all patients | remarkable reduction | remarkable increase | 13 points | 16 points | 28% | 31% | 0.75 mg | – | –
C[C@@H]1C[C@H]2[C@@H]3CCC4=CC(=O)C=C[C@]4(C)[C@@]3(F)[C@@H](O)C[C@]2(C)[C@@]1(O)C(=O)CO [dexamethasone] | – | – | – | – | – | – | – | – | – | – | – | – | – | – | 0.75 mg | short direct repeat-mediated noncanonical splicing event induced | –
C[C@H]1C[C@@H]2[C@H]([C@@H](O)C[C@@]3(C)[C@H]2CC[C@]3(O)C(=O)CO)[C@@]2(C)C=CC(=O)C=C12 [methylprednisolone] | – | – | – | – | – | – | – | – | – | – | – | – | – | – | 4 mg | – | No beneficial effect
